Assay results reported in PubChem BioAssay AID463206 (Broad Institute, 2010).
The other results are listed elsewhere or left out. Potency and affinity values are given separately. The source made no clear call on entries shown without one.

Test: suppression of cytokine-driven beta-cell apoptosis – INS-1E rat cells, luminescence, orthogonal assay for beta-cell apoptosis protection project, dose response (AID 463206)
Conditions: INS-1E cytokine-induced caspase-3/7, Caspase-Glo luminescence, 48 h; at 26 µM (top of the series)
`O=C(CCCCCCCCCCC(=O)NCc1cccnc1)NCc1cccnc1` showed an activity change, negative = inhibition of 51.8%. Compound `O=C(NCc1cccnc1)c1ccc(NC(=O)c2ccc(Br)cc2)cc1` has an activity change, negative = inhibition of 48.3%. With `COc1ccccc1-[n+]1c(C)cc(/C=C2\Sc3ccccc3N2C)cc1C` the activity change, negative = inhibition was 45.3%. For `O=C(CCC1CCCC1)Nc1ccc(C(=O)NCc2cccnc2)cc1`, the activity change, negative = inhibition was 46.8%. `O=C(COc1ccc([N+](=O)[O-])cc1)Nc1ccc(C(=O)NCc2cccnc2)cc1` showed an activity change, negative = inhibition of 46.9%. For `CC(C)(C)c1ccc(C(=O)Nc2ccc(C(=O)NCc3cccnc3)cc2)cc1`, the activity change, negative = inhibition was 49.6%. In the case of `O=C(NCc1cccnc1)c1ccc(NC(=O)c2ccc([N+](=O)[O-])cc2)cc1`, the activity change, negative = inhibition is reported as 49.1%. For `O=C(NCc1cccnc1)c1ccc(NC(=O)c2cccc([N+](=O)[O-])c2)cc1`, the activity change, negative = inhibition was 44.1%. `COc1ccc(Cc2nc(-c3ccc(NC(=O)c4cccnc4)cc3)no2)cc1` showed an activity change, negative = inhibition of 44.1%. `CCN1/C(=C/C(C)=C/c2sc3ccccc3[n+]2CC)Sc2ccccc21` gave an activity change, negative = inhibition of 56.6%. For `O=C(NCCOc1cccnc1)c1ccc(OC2CCN(Cc3ccccn3)CC2)cc1`, the activity change, negative = inhibition was 60.2%. With `O=C(COc1ccc(Cl)cc1)Nc1ccc(C(=O)NCc2cccnc2)cc1` the activity change, negative = inhibition was 55%.
